PubChem BioAssay AID504786, Drosophila RNAi Screening Center | 2011

Test: 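Fly genes required for HIF-dependent transcription when hypoxia is mimicked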 (primary screen)
Cell system: Drosophila S2 cells with a stable HIF luciferase reporter
Reagents: long dsRNA against Drosophila genes, about 0.2 µg dsRNA per well of a 384-well plate
Time to read-out: three days of knock-down, then 20 h of DFO before reading
Challenge: desferrioxamine (DFO) at 100 µM, an iron chelator that mimics hypoxia, for 20 h
Measured: 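Firefly luciferase driven by the mouse ldh-a hypoxia-response element, measured after 20 h of 100 µM DFO; z-scores per plate, higher means more signal lost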
Reading the numbers: z-score: higher = stronger loss of HIF reporter signal
In all, the deposit lists about 21,000 reagents; below is an unselected part of those that have a named target and a result. 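Primary screen; positive scores mean lost reporter signal, so the sign may be inverted from the usual convention.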 Further read-outs or replicates are left out here.

gene | dsRNA | z-score, replicate 1 | z-score, replicate 2
nxf2 (nuclear RNA export factor 2) | DRSC10403 | -0.3 | -0.4
CG5335 | DRSC06931 | -0.3 | 0.2
bin3 (bicoid-interacting protein 3) | DRSC04919 | 0.5 | 0.6
CG4907 | DRSC15673 | -0.1 | -0.5
Sf3b5 (Splicing factor 3b subunit 5) | DRSC14460 | 8 | 5.8
Svil (Supervillin) | DRSC07981 | -0.2 | -0.3
Svil (Supervillin) | DRSC08296 | -0.3 | -0.8
Svil (Supervillin) | DRSC08332 | -0.2 | -0.3
Svil (Supervillin) | DRSC08333 | 2.2 | 4.2
Svil (Supervillin) | DRSC08494 | 0.1 | -0.1
CG11317 | DRSC14299 | -0.4 | -0.4
ninaG | DRSC16102 | -0.4 | -0.2
alphaSnap (alpha Soluble NSF attachment protein) | DRSC11285 | -0.4 | 0.5
CG6136 | DRSC15975 | -0.1 | 0.1
CG5934 | DRSC15922 | -0.3 | -0.8
Cht5 (Chitinase 5) | DRSC16470 | -0.4 | -0.3
CG12945 | DRSC14573 | 0.1 | -0.4
CG9733 | DRSC16549 | -0.1 | 0.5
P5CDh1 (delta-1-Pyrroline-5-carboxylate dehydrogenase 1) | DRSC11801 | -0.1 | -0.2
Prosalpha4T1 (Proteasome alpha4 subunit, Testis-specific 1) | DRSC16800 | 0.4 | -0.3
CG4238 | DRSC00090 | -0.1 | -0.2
CG4238 | DRSC00644 | 0 | -0.8
mRpL48 (mitochondrial ribosomal protein L48) | DRSC00506 | 0.7 | 1
CG9586 | DRSC03270 | -0.3 | -0.3
CG12288 | DRSC02155 | 1.6 | -0.4
trio | DRSC07928 | -0.4 | 0.5
trio | DRSC08527 | -0.3 | -0.6
trio | DRSC08740 | -0.4 | -0.4
Cyp4ac3 (Cytochrome P450 4ac3) | DRSC03304 | -0.3 | -0.7
CG13110 | DRSC02208 | 0.2 | 0.1
CG13375 | DRSC18621 | -0.4 | -0.2
CG10638 | DRSC09762 | -0.2 | 0.2
Arf1 (ADP ribosylation factor 1) | DRSC11606 | -0.6 | -1
CG17202 | DRSC15194 | 0.8 | 1.4
